Primary screen of a compound library

From ChEMBL document CHEMBL3988442, “University of Dundee, Small-Polar-MMV Screening Library” (2021).

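Growth of Mycobacterium tuberculosis over 3 days (7H9 medium with glucose and tyloxapol); the read-out is not stated. Concentration: 50 µM. Direction is inferred from retests: higher values go with more growth inhibition. Of about 69,000 compounds tested this way, about 760 (1.1%) reached 50% or more in at least one test.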

The filed quantity is “Percent Effect” (%).
The controls that fix the scale are not given in the record; negative values are as filed.
Compounds were drawn at random from those tested, without regard to their results.
Two or more numbers in one place are separate tests of the same structure; such repeats can differ widely.

| Compound | percent effect |
|---|---|
| `[H][C@@]12C[C@H](c3nnc(C)o3)CN(S(=O)(=O)CC)[C@]1([H])CCO2` | 1.062 and -10.3 |
| `Cc1cc(C)n(CCCn2cncc2-c2ccc3c(c2)CC(C)N3C)n1.Cl` (stereo not shown) | 35.05 |
| `Cc1nc(COc2ccc(OC3CCCCNC3=O)cc2)oc1C` (stereo not shown) | 1.491 |
| `NCc1ccnc(Oc2ccccc2)c1` | -1.405 |
| `O=C(O)C(F)(F)F.[H][C@@]12COC[C@H](NS(C)(=O)=O)[C@]1([H])CN(Cc1ccc(C)o1)C2` | -7.764 |
| `CC1CCCN(C(=O)c2ccc(N(C)Cc3cnn(C)c3)nc2)C1` (stereo not shown) | -16.5 |
| `CS(=O)(=O)N1CCOCC2(CCN(c3ccccn3)C2)C1.O=C(O)C(F)(F)F` (stereo not shown) | 14.98 |
| `CN(C)C(C(=O)N1CCN(CC(F)(F)F)CC1)c1ccccc1F` (stereo not shown) | 15.04 |
| `COCCO[C@H]1CCN(C(=O)NC2CC2)[C@H]1Cc1cnn(C)c1` | -21.51 |
| `CC(C)NC(=O)c1nc2c(s1)CCCN2Cc1ccccc1` | 1.79 and -3.921 |
| `COCCN1CCN(Cc2csc(-c3cnn(C)c3)n2)CC1` | 23.2 |
| `CC(=O)c1ccc(N2CCCC(CO)(CCOc3ccccc3)C2)nc1` (stereo not shown) | 21.68 |
| `c1ccc(OCCCn2ccnc2-c2cn(C3CCNCC3)nn2)cc1` | 18.04 |
| `Cc1cccc(CN2CCc3c(nc(N4CCCCC4C)[nH]c3=O)C2)n1` (stereo not shown) | -7.211 |
| `Cc1ccc(Cl)cc1NCc1nc2[nH]c(C)c(C)c(=O)n2n1` | 15.89 |
| `O=C(C1CCN(c2snc3ccccc23)CC1)N1CCCCCC1` | 18.83 |
| `CCC1CN(Cc2c(O)ccc3oc4c(c23)CCCC4)CCO1` (stereo not shown) | -19.8 |
| `Clc1ccc(N2CCC(OCC3CCCCO3)CC2)nc1` (stereo not shown) | 27.71 |
| `O=C(O)C(F)(F)F.O=C(O)C(F)(F)F.O=S(=O)(NCC1OCCc2cn(Cc3ccccn3)nc21)C1CC1` (stereo not shown) | 11.27 and 1.436 |
| `Cc1cc(CN2CCc3nc(C)n(C)c(=O)c3CC2)[nH]n1` | 21.67 |
| `Cc1cc(C)n(CC2CN(c3ncnc4[nH]ccc34)CCO2)n1` (stereo not shown) | 11.8 |
| `Cc1cnn(C2CCCN(C(=O)c3cc(-c4cccs4)n[nH]3)C2)c1` (stereo not shown) | -1.774 and -3.546 |
| `Nc1nc(CN2CCN(c3nccs3)CC2)cs1` | -35.55 |
| `OCCn1nccc1C1CCN(CCCOc2ccc(F)cc2)CC1` | -1.802 |
| `CCCc1nc(NCCCn2cccn2)c2c(n1)c(C)nn2CC` | 24.41 |
| `COc1ccc(Cl)cc1C(=O)N1CCCC(c2cc(C)[nH]n2)C1` (stereo not shown) | -10.77 |
| `Cc1ccccc1S(=O)(=O)Cc1nsc(N(C)C)n1` | -16.65 and 9.876 |
| `CCN1c2ccc(-c3cncn3CC(=O)NC(C)(C)C)cc2CC1C.Cl` (stereo not shown) | 34.38 |
| `COCC1CCN(Cc2cc(O)c3c(C)ccc(C)c3n2)CC1` | -64.01 |
| `CN1CCN(C(=O)c2nc3c(o2)CN(C(=O)c2cccnc2)C3)CC1.O=C(O)C(F)(F)F.O=C(O)C(F)(F)F` | -12.56 |
| `CC(Oc1ccc(S(C)(=O)=O)cc1)C(=O)NC(N)=O` (stereo not shown) | -25.12 |
| `CCNc1nnc(SC(C(=O)NCc2cccnc2)C(C)C)s1` (stereo not shown) | 1.826 and 12.8 |
| `O=S(=O)(N1CCOCC1)N1CCCC(c2ccccn2)C1` (stereo not shown) | 0.8085 |
| `CCC(C)CS(=O)(=O)NC(=O)C1CCC1` (stereo not shown) | -1.112 |
| `Clc1cccc(CNc2cnn(CCN3CCCCC3)c2)c1` | 2.622 |
| `[H][C@@]12CCN(C(=O)c3ccsc3)C[C@@]1([H])O[C@H](c1noc(C)n1)C2` | -3.857 |
| `CN(Cc1nnc(C2CC2)n1C)S(=O)(=O)c1ccccc1C#N` | 6.503 |
| `CNC(=O)CCCNc1cc(C)nc2cc(C)nn12` | -0.4528 |
| `Cc1nc(C)n(CC2CCCCN2Cc2cscn2)n1` (stereo not shown) | -12.78 |
| `Cn1ccnc1C(NCc1ccc(Br)cc1)c1ccccc1` (stereo not shown) | -0.2483 |
| `COc1ccc(CNC(C)Cn2cccn2)c(OC)c1OC.Cl` (stereo not shown) | -4.291 |
| `Cc1cnn(C2CCCN(C(=O)c3ccc(-n4cnnn4)cc3)C2)c1` (stereo not shown) | 4.767 |
| `CC(C)N1CCOC(c2ccnc(N(C)C)n2)C1` (stereo not shown) | 4.997 |
| `Nc1ccnc(N2C[C@H](O)[C@@H](N3CCN(c4ccccn4)CC3)C2)n1` | -32.08 and -9.665 |
| `[H][C@]12CC[C@]([H])(CN(C(=O)c3ccccn3)C1)N(C(=O)CN1CCOC1=O)C2` | -11.22 |
| `COCC[C@]1(O)CCN(c2ncc(Cl)cc2F)C[C@H]1C` | 21.05 |
| `Cc1ccccc1CNC(=O)N1CCC(n2cncn2)CC1` | -13.11 |
| `Cc1ccc(CN2CC(O)CN(C(=O)OCC(C)C)CC2=O)cc1` (stereo not shown) | 12.14 |
| `CN(C)Cc1cc(=O)n2c(n1)CN(C(=O)Cc1cccs1)CCC2.O=C(O)C(F)(F)F` | 10.22 and 2.274 |
| `CC[C@@]1(O)CCN(CCCOc2ccc(C(N)=O)cc2)C[C@H]1O` | 16.1 |
| `CN1CCCC(c2cncc(-c3cccc(C(F)(F)F)c3)n2)C1` (stereo not shown) | 31.42 |
| `CC(=O)N1CCc2cc(C(=O)O)c(-c3ccsc3)nc2CC1.O=C(O)C(F)(F)F` | -21.47 and -3.162 |
| `Cn1nc(COc2cccnc2)c2c1CCN(c1ncccn1)C2` | 27.53 |
| `CS(=O)(=O)c1ccc(O[C@H]2COCCN(Cc3ccncc3)C2)cc1` | -5.347 and 22.2 |
| `O=C1NCCCCC1SCc1coc(-c2cccc(F)c2)n1` (stereo not shown) | -20.39 |
| `COC(C)c1noc(CN(C)c2nccnc2C#N)n1` (stereo not shown) | -48.18 |
| `CN1CCN(c2ncccn2)CC12CCC(=O)N(CC1CC1)CC2` (stereo not shown) | -31.22 |
| `[H][C@@]12CCN(C(=O)C3CCCC3)[C@]1([H])C(=O)N(c1ccc(F)cc1)C(=O)N2` | -24.91 and -4.101 |
| `CC1CN(CC(=O)Nc2ccncc2)CCN1Cc1nccn1C` (stereo not shown) | 20.56 |
| `CCCOCC1CCN(C(=O)c2cnc(-c3cccnc3)nc2O)C1` (stereo not shown) | -44.7 |
| `Cc1nc(C)c(C(=O)N2C[C@@H](C(=O)O)[C@H](C3CC3)C2)s1` | -13.86 |
| `CN1CC(=O)N(c2cccc(F)c2)CC12CCN(Cc1cccnc1)C2.O=C(O)C(F)(F)F.O=C(O)C(F)(F)F.O=C(O)C(F)(F)F` (stereo not shown) | 2.206 |
| `CCc1ncnc2c1CCN(Cc1ccc(OC)cc1)CC2.O=C(O)C(F)(F)F` | 13.96 |
| `Cc1cc(C)n(CC2CN(Cc3ccccn3)CCO2)n1` (stereo not shown) | 10.19 |
| `Cl.O=C1CC2(CCCNC2)C(=O)N1Cc1ccccc1` (stereo not shown) | -35.51 |
| `CCCC1(CNCc2ncc[nH]2)CCC1` | -5.803 |
| `[H][C@]12CNC[C@@]1(C(=O)NCCCOC(C)C)CN(S(C)(=O)=O)C2` | -20.94 |
| `Nc1cc2c(nn1)CCN(C(=O)CC1CCCC1)C2` | 7.029 |
| `CO[C@H]1COCCN(C(=O)c2ccc(C(F)(F)F)cc2)C1` | 2.545 and 18.13 |
| `O=C(Nc1ccc2occc2c1)N1CCCC(O)(CO)CC1` (stereo not shown) | 1.055 |
| `CC(NC(=O)Cn1cccn1)c1ccc2c(c1)OCCO2` (stereo not shown) | 7.74 |
| `O=C1CC(NS(=O)(=O)c2ccc(Cl)cc2)CN1` (stereo not shown) | -9.621 |
| `[H][C@]12CC[C@]([H])(CN(Cc3ccccc3)C1)N(C(=O)OCC)C2` | 39.3 |
| `Cc1[nH]ccc1C(=O)N1CCC(c2nnc(Cn3cccn3)n2C)CC1` | 0.2782 |
| `CCN(CC)c1ccc(-c2nc(-c3cccc(OC)c3OC)no2)cn1` | 14.77 |
| `COC(=O)N1CCCC(C(=O)NCCc2c[nH]c3cc(C)ccc23)C1` (stereo not shown) | 4.707 |
| `CCc1c(C)nn(C)c1NC(=O)N1CCCOC(Cn2cccn2)C1` (stereo not shown) | 9.916 |
| `COc1cccc(CN2CCCCC2c2n[nH]cc2-c2cc(C)no2)c1.Cl` (stereo not shown) | -12.22 |
| `Cc1cc(CN2CCc3nn(C)c(=O)cc3C2)on1` | 4.233 and -7.957 |
| `CCC(C)N(C)C(=O)Nc1ccc(N2CCSCC2)cc1C` (stereo not shown) | 0.5851 and 7.382 |
| `Cn1ncnc1NCc1ccc(Br)cc1` | 21.54 |
| `[H][C@]12CC[C@]([H])(CN(c3ncccc3F)C1)N(CC=C(C)C)C2=O` | 4.221 |
| `O=C(Cc1ccsc1)N1CCn2cc(Cn3cncn3)nc2C1` | -8.049 and 26.57 |
| `Cn1cc(C(=O)N2CCCC2c2noc(C3CC3)n2)c2ccccc21` (stereo not shown) | -7.322 |
| `Cc1nn(C(C)C)c(C)c1CN1CCN(C2CCCCC2)C(=O)C1.O=C(O)CC(O)(CC(=O)O)C(=O)O` | 12.5 |

Once more, the final 10:

* COC(=O)N1CCCC(C(=O)NCCc2c[nH]c3cc(C)ccc23)C1 (stereo not shown) : 4.707%
* CCc1c(C)nn(C)c1NC(=O)N1CCCOC(Cn2cccn2)C1 (stereo not shown) : 9.916%
* COc1cccc(CN2CCCCC2c2n[nH]cc2-c2cc(C)no2)c1.Cl (stereo not shown) : -12.22%
* Cc1cc(CN2CCc3nn(C)c(=O)cc3C2)on1 : 4.233% and -7.957%
* CCC(C)N(C)C(=O)Nc1ccc(N2CCSCC2)cc1C (stereo not shown) : 0.5851% and 7.382%
* Cn1ncnc1NCc1ccc(Br)cc1 : 21.54%
* [H][C@]12CC[C@]([H])(CN(c3ncccc3F)C1)N(CC=C(C)C)C2=O : 4.221%
* O=C(Cc1ccsc1)N1CCn2cc(Cn3cncn3)nc2C1 : -8.049% and 26.57%
* Cn1cc(C(=O)N2CCCC2c2noc(C3CC3)n2)c2ccccc21 (stereo not shown) : -7.322%
* Cc1nn(C(C)C)c(C)c1CN1CCN(C2CCCCC2)C(=O)C1.O=C(O)CC(O)(CC(=O)O)C(=O)O : 12.5%